# The list shows a part of the results.
# Chains of the proteins cited; added tags and fusions are not shown. Lines headed by an entry give the natural chain unless they say otherwise; changes in a name come on top.
# UniProt P11717, whole entry, looked up: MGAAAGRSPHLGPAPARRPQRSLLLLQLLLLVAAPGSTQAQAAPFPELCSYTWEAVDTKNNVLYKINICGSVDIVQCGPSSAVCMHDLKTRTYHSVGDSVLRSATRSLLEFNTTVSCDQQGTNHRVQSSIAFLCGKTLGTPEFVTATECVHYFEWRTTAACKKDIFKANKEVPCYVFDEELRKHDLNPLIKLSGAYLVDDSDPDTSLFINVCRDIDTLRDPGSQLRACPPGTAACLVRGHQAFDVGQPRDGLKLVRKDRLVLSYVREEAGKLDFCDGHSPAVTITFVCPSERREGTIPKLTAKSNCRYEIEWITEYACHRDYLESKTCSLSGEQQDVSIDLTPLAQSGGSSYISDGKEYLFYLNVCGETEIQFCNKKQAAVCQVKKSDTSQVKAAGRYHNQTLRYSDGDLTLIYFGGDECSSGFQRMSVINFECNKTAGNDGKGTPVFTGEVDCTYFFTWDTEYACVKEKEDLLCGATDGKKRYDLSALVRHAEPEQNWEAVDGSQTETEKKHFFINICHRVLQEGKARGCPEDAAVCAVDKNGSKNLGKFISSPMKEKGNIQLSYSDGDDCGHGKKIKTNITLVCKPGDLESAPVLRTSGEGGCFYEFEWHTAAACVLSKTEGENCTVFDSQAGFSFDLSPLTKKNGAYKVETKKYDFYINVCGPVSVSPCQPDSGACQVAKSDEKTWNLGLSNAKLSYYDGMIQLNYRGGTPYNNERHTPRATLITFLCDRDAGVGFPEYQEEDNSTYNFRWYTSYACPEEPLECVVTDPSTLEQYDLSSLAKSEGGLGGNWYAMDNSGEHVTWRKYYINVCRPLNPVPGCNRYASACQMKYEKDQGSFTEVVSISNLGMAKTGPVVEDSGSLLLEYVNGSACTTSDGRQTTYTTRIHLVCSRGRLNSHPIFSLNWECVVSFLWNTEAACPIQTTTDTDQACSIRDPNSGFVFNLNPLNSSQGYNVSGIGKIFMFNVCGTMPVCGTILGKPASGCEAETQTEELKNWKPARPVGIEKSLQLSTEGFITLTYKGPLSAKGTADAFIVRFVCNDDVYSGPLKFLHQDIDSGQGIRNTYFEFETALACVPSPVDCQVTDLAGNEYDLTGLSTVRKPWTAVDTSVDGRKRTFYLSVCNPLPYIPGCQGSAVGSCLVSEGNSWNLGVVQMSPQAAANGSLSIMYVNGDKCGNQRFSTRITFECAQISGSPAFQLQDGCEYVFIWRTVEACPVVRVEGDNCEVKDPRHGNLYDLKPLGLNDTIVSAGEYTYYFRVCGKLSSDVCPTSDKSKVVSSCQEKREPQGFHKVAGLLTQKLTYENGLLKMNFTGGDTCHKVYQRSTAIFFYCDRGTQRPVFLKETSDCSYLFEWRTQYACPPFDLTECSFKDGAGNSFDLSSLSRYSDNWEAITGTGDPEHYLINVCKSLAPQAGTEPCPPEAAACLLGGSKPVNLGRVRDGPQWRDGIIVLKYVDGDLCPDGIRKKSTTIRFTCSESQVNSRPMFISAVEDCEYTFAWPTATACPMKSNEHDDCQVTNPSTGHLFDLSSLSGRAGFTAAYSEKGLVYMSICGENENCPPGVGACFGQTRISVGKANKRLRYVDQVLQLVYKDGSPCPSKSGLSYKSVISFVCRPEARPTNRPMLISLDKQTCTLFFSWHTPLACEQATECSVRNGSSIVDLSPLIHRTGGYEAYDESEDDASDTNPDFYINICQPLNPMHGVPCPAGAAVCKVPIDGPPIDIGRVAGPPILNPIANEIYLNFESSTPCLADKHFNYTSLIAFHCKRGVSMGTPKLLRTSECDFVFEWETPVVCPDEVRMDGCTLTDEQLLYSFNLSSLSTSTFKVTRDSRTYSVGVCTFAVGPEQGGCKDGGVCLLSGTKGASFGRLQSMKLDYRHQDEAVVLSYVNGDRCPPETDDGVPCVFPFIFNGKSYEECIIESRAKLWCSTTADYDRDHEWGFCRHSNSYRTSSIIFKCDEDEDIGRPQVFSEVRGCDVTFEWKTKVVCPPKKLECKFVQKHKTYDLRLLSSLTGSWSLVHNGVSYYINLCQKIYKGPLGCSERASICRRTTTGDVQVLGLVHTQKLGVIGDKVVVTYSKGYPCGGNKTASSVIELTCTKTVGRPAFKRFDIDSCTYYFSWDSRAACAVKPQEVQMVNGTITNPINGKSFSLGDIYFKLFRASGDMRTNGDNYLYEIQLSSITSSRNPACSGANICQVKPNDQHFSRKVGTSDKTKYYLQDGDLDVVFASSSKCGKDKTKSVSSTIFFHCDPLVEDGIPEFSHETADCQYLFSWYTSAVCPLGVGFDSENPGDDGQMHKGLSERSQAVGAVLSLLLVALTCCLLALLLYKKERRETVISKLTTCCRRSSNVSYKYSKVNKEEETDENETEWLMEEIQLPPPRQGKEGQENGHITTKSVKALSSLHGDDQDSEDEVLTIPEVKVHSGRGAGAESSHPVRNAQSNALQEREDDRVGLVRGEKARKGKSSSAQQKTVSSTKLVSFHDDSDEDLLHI
# UniProt P48735: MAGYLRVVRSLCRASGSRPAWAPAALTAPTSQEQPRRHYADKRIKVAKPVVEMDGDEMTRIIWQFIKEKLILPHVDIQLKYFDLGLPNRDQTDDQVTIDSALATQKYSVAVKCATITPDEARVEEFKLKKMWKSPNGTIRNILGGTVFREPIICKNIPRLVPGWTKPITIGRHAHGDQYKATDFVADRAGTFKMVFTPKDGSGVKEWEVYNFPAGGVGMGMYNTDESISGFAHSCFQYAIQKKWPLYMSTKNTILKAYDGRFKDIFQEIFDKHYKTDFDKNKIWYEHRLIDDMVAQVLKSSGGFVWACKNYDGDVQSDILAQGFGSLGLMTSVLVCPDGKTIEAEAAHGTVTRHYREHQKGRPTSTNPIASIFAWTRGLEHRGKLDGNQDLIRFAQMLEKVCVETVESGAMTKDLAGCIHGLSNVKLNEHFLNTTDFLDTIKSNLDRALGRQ
# UniProt Q9H160: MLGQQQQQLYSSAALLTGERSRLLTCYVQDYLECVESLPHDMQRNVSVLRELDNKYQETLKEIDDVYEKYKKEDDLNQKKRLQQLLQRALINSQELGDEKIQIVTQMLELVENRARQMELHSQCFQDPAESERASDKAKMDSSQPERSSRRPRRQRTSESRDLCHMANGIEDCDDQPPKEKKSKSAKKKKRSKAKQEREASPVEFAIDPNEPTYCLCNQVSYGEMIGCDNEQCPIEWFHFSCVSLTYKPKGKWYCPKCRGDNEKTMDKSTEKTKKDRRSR
# UniProt Q27J81, whole entry, looked up: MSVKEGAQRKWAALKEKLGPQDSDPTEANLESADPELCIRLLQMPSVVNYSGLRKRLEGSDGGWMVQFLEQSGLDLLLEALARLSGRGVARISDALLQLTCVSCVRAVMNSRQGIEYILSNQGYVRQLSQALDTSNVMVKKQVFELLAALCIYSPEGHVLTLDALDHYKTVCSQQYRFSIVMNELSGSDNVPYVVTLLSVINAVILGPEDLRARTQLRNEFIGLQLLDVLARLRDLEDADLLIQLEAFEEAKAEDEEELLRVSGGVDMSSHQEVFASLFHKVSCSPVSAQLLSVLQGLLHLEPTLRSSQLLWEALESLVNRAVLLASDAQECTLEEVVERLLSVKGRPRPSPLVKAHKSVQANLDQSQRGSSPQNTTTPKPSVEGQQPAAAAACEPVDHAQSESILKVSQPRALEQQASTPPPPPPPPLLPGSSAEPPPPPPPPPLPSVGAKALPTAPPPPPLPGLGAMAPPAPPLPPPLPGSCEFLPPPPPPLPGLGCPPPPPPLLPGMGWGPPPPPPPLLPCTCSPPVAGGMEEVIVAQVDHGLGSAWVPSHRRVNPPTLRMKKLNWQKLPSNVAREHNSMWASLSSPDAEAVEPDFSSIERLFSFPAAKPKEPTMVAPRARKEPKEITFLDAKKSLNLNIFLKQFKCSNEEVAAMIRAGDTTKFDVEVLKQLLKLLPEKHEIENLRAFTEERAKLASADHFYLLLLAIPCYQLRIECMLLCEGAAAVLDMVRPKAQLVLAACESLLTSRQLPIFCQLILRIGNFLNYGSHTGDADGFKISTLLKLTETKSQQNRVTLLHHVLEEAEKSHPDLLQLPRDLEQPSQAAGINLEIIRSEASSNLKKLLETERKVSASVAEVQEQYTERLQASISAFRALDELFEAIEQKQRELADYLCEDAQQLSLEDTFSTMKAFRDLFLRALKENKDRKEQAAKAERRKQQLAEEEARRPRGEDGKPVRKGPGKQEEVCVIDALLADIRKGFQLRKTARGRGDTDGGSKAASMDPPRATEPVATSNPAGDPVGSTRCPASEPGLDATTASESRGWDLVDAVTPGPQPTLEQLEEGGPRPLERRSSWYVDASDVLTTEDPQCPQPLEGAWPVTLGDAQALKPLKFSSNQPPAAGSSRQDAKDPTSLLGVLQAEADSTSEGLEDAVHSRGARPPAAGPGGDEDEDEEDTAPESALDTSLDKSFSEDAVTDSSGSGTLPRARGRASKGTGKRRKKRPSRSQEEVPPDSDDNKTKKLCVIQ
# UniProt Q16666: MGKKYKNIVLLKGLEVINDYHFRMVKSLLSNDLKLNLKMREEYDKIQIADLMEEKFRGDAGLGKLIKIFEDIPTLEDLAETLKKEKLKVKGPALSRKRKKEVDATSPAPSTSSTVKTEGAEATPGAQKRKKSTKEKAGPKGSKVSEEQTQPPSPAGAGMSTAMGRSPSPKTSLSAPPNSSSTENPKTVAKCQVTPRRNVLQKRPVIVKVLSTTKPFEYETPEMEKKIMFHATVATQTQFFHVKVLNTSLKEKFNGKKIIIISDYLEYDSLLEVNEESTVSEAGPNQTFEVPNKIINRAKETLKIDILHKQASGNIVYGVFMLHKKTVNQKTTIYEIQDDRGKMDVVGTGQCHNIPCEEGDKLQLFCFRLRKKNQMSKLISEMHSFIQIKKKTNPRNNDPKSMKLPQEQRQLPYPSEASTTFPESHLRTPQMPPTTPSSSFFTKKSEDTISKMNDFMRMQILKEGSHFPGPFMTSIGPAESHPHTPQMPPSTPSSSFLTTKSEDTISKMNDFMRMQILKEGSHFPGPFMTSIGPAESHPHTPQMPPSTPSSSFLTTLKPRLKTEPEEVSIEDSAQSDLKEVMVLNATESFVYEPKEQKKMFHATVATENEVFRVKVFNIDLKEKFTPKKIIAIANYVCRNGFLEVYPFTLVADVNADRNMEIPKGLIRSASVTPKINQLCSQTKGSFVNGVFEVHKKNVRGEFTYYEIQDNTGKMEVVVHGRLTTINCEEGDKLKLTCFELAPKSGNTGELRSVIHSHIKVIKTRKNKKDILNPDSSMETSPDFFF
# UniProt P50213: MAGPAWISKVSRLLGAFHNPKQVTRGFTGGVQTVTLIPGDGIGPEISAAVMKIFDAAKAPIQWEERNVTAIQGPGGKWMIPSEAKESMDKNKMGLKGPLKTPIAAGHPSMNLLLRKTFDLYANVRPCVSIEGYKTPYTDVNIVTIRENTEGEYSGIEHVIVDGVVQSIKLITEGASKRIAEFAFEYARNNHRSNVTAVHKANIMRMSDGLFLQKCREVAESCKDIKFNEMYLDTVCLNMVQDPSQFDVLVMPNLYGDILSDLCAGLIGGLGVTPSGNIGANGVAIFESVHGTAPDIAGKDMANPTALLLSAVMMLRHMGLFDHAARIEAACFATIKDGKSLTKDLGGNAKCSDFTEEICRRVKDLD
# UniProt Q9NX62: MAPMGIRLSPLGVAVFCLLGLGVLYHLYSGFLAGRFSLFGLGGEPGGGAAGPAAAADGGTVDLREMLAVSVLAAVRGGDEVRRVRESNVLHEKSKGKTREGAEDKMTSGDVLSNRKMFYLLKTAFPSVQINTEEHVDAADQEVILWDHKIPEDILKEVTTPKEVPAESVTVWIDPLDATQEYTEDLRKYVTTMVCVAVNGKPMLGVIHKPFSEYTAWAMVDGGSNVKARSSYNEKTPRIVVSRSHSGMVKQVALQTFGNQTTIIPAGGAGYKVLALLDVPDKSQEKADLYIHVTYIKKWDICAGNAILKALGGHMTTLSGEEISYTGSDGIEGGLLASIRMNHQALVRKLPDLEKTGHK
# UniProt P20839, whole entry, looked up: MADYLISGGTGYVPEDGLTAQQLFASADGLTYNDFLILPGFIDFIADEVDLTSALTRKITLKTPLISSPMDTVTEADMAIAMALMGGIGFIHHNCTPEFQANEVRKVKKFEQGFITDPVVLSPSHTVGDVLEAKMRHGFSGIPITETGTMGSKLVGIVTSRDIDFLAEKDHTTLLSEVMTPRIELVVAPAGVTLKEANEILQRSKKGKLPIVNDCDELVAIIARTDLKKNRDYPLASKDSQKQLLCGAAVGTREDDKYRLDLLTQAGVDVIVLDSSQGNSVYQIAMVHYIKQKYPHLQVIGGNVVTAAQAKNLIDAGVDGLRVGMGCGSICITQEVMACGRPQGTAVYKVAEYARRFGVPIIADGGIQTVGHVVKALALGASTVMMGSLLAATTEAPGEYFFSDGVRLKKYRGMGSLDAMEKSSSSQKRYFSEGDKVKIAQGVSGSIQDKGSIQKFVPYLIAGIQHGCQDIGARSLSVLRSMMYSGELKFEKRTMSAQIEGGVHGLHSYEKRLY
# Compound: Cc1cc(ccc1-c1ccccc1)C(=O)N1CCCN(CC1)C(=O)CCl [compound 10]
# Assay: probe-labelled cysteine peptide fold change vs DMSO (competition) (log2 fold change); higher = less target engagement (more negative = stronger competition)
# Details: THP-1, incubation time: 4 h
# 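Also: competitive profiling in live THP-1 cells: cysteine peptides tagged with an iodoacetamide desthiobiotin (IA-DTB) probe, intensity after compound treatment relative to DMSO-treated cells.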
Target,probe-labelled cysteine peptide fold change (10 µM),probe-labelled cysteine peptide fold change (50 µM)
INO80_Q9ULG1_13_DDGGCTELAK (UniProt Q9ULG1),-0.128,-0.522
IGF2R_P11717_1795_TSECDFVFEWETPVVCPDEVR (UniProt P11717),0.141,-0.204
INPP5D_Q92835_217_KLTTLLCK (UniProt Q92835),0.196,-0.0738
IDH2_P48735_308_SSGGFVWACK (UniProt P48735),0.168,0.23
IGF2R_P11717_475_EDLLCGATDGK (UniProt P11717),-0.157,0.187
ING2_Q9H160_26_LLTCYVQDYLECVESLPHDMQR (UniProt Q9H160),-0.424,-0.0276
IGF2R_P11717_2113_RFDIDSCTYYFSWDSR (UniProt P11717),0.347,0.00493
INF2_Q27J81_758_QLPIFCQLILR (UniProt Q27J81),0.0614,-0.00437
IL17RA_Q96F46_632_EPGSQACLAIDPLVGEEGGAAVAK (UniProt Q96F46),-0.0942,0.0011
IFI16_Q16666_679_INQLCSQTK (UniProt Q16666),-0.116,0.16
IFRD2_Q12894_147_EYVDCLTDK (UniProt Q12894),0.0555,0.0894
INPP5D_Q92835_902_APPCSGSSITEIINPNYMGVGPFGPPMPLHVK (UniProt Q92835),-0.25,-0.545
ILVBL_A1L0T0_173_GALQAVDQLSLFRPLCK (UniProt A1L0T0),0.0544,-0.275
IMPA1_P29218_8_ADPWQECMDYAVTLAR (UniProt P29218),0.0287,-0.0866
IDH2_P48735_154_EPIICK (UniProt P48735),-0.161,0.175
IGF2R_P11717_814_YYINVCRPLNPVPGCNR (UniProt P11717),-0.0356,-0.0246
IDH3A_P50213_351+359_CSDFTEEICR (UniProt P50213),-0.379,0.158
IMPA2_O14732_107_CVLTHSPTWIIDPIDGTCNFVHR (UniProt O14732),0.149,-0.425

Target,probe-labelled cysteine peptide fold change (10 µM),probe-labelled cysteine peptide fold change (50 µM)
IFT27_Q9BW83_8_CILAGDPAVGK (UniProt Q9BW83),-0.0513,-0.177
IGF2R_P11717_1987_VVCPPK (UniProt P11717),-0.205,-0.0493
INPP5D_Q92835_217_LTTLLCK (UniProt Q92835),0.165,-0.134
IMPAD1_Q9NX62_302_KWDICAGNAILK (UniProt Q9NX62),-0.223,0.271
IFI16_Q16666_351_MDVVGTGQCHNIPCEEGDK (UniProt Q16666),0.0638,0.278
IDE_P14735_178_FAQFFLCPLFDESCK (UniProt P14735),0.0901,0.199
IDH3A_P50213_222_EVAESCK (UniProt P50213),0.0481,0.136
INPP1_P49441_10_ELLCVSEK (UniProt P49441),-0.0523,-0.242
IGF2R_P11717_174_EVPCYVFDEELRK (UniProt P11717),-0.252,-0.189
IDH2_P48735_113_CATITPDEARVEEFK (UniProt P48735),0.0282,-0.417
HUWE1_Q7Z6Z7_3333_HASGGSTVHIHPQAAPVVCR (UniProt Q7Z6Z7),0.293,0.0771
INF2_Q27J81_971_KGPGKQEEVCVIDALLADIR (UniProt Q27J81),-0.149,-0.516
ICAM3_P32942_423_HVLQCQAR (UniProt P32942),-0.192,-0.0101
IFIH1_Q9BYX4_17_YLISCFR (UniProt Q9BYX4),-0.0884,-0.0609
HUWE1_Q7Z6Z7_1879_VLGPAACR (UniProt Q7Z6Z7),-0.181,-0.248
IMPDH1_P20839_468_FVPYLIAGIQHGCQDIGAR (UniProt P20839),0.0257,0.232
HUWE1_Q7Z6Z7_349_LSSIIDCTGTASYHGFLPVLVR (UniProt Q7Z6Z7),-0.208,0.0399
IGF2R_P11717_84_INICGSVDIVQCGPSSAVCMHDLK (UniProt P11717),0.0168,-0.227

# Reference: the supplement of paper PMC12067093, “Discovery and optimisation of a covalent ligand for TRIM25 and its application to targeted protein ubiquitination” (Chemical Science, 2025)
